# PubChem BioAssay AID2417 (National Center for Advancing Translational Sciences (NCATS), 2010)
# The campaign covered roughly 140,000 compounds. About 4,300 (3.1%) were called active. The shares of active, inactive and inconclusive entries below differ from those in the screen.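 Rule for the calls: active = readout at or below -70, meaning at least 70% loss of cells showing the perinucleolar compartment, a nuclear body marking cancer cells; inconclusive = readout between -30 and a set limit; inactive = the rest.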
# Assay: High Content Assay for Compounds that inhibit the Assembly of the Perinucleolar Compartment;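 note: plate controls were DMSO wells for no effect and camptothecin positive control wells for full effect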
# Settings: PC3M PTB-GFP, PNC prevalence imaging, 16 h; at 10 µM; active compounds read low
# Procedure, shortened: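 Read-out is percentage of cells bearing a perinucleolar compartment, from automated 20x imaging of fixed, Hoechst-stained PC3M PTB-GFP cells. Cells were seeded 4 h, then exposed 16 h to compound (23 nl of library stock) in duplicate plates.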
row,Compound,"activity change (PNC), negative = inhibition"
1,CCCCNC(=O)C1CCCN1C(=O)Nc1ccccc1 (stereo not given),inconclusive: -52.1%
2,O=[N+]([O-])c1cc2oc3c(c2c(C=NCc2ccccc2)c1O)CCCC3,inactive: 17.6%
3,O=C(NNC(=S)NC(=O)c1ccccc1[N+](=O)[O-])c1ccccc1Cl,inconclusive: -45.6%
4,COc1cc(Cl)c(C)cc1NC(=O)CSc1nnc(-c2ccccn2)n1Cc1ccco1,inconclusive: -32%
5,CCN(Cc1ccccc1)C(=O)Cn1c(=O)n(CC(=O)NCc2ccco2)c(=O)c2sccc21,inconclusive: -47.5%
6,O=C(Oc1ccc2c3c(c(=O)oc2c1)CCC3)c1ccccc1[N+](=O)[O-],inconclusive: -44.8%
7,CCN(CC)c1ccc(NC(=O)c2ccccc2)cc1S(=O)(=O)Nc1ccccc1OC,inconclusive: -74.4%
8,O=C(c1cccn2c(=O)c3ccccc3nc12)N1CCN(c2ccccn2)CC1,inconclusive: -65.2%
9,COc1ccccc1N1CCN(C(=O)c2ccc(Cl)c(S(=O)(=O)NCc3ccco3)c2)CC1,inconclusive: -32%
10,CC(C)c1nc(SCC(=O)Nc2ccc3c(c2)OCCO3)c2c(=O)n(C)c(=O)n(C)c2n1,inconclusive: -38%
11,Cc1ccc(NC(=O)Cn2c(/C=C/c3ccccc3)nc3ccccc32)cc1C,inconclusive: -38.4%
12,CN(Cc1ccccc1)C(=O)CCC(=O)N(C)Cc1ccccc1,inactive: -6.66%
13,Cc1cc(NC(=O)CSc2nnc(-c3ccc(Br)o3)n2Cc2ccccc2)no1,inactive: 17.2%
14,COc1ccc(NC(=O)CSc2nc(N)c3cc4c(nc3n2)CCCC4)cc1,inconclusive: -50.4%
15,Cc1cccc(N2CCN(C(=O)c3cc(C)oc3C)CC2C)c1 (stereo not given),inconclusive: -38.8%
16,CC(C)c1ccc2c(c1)C(c1ccc(N3CCOCC3)cc1)=NNC(c1cccs1)=N2,inactive: 27.8%
17,Cc1ccc(/C=C(\C#N)c2nn(-c3ccccc3)c(N)c2C#N)cc1,inconclusive: -36.9%
18,CCN(C(=O)c1cc2cccc(OC)c2oc1=O)C1CCCCC1,inconclusive: -63.5%
19,Cc1cccc(C)c1N(CC(=O)N1CCN(C)CC1)S(C)(=O)=O,inconclusive: -51.5%
20,COC(=O)C1=C(C)Nc2nnnn2C1c1ccccc1Cl (stereo not given),inconclusive: -34.3%
21,O=C(CN1CCN(Cc2ccccc2)CC1)Nc1ccc(S(=O)(=O)N2CCOCC2)cc1,inconclusive: -36.4%
22,CC(C)c1ccc(/C=N/NC(=O)c2nnn(-c3nonc3N)c2CSC2=NCCS2)cc1,inactive: 28%
23,CN1CCc2cc3c(c4c2[C@H]1[C@H](O)c1ccccc1-4)OCO3,inactive: 12.9%

# Part of the list above, bar-delimited.
row | Compound | activity change (PNC), negative = inhibition
1 | CCCCNC(=O)C1CCCN1C(=O)Nc1ccccc1 (stereo not given) | inconclusive: -52.1%
2 | O=[N+]([O-])c1cc2oc3c(c2c(C=NCc2ccccc2)c1O)CCCC3 | inactive: 17.6%
3 | O=C(NNC(=S)NC(=O)c1ccccc1[N+](=O)[O-])c1ccccc1Cl | inconclusive: -45.6%
4 | COc1cc(Cl)c(C)cc1NC(=O)CSc1nnc(-c2ccccn2)n1Cc1ccco1 | inconclusive: -32%

# Remaining list, next part.

row,Compound,"activity change (PNC), negative = inhibition"
1,CC(C)(O)P(C)(=O)c1ccccc1 (stereo not given),inactive: -3.3%
2,CC(=O)NC1(C(F)(F)F)N=C(c2ccccc2)NC1=O (stereo not given),inconclusive: -31.6%
3,CCC(C)c1ccccc1NC(=O)COC(=O)c1ccc(C)c(NC(=O)c2ccco2)c1 (stereo not given),inconclusive: -51.9%
4,N#Cc1c(C(F)(F)F)cc(C2CC2)[nH]c1=O,inactive: -25.2%
5,CC(C)(C)NC(=O)CSc1nncn1NCc1c(Cl)cccc1Cl,active: -100%
6,CCOC(=O)N1CCN(c2c(-c3ccc(C)c(C)c3)c(=O)c2=O)CC1,active: -100%
7,Cc1ccc(Cl)cc1N1CCN(C(c2cccnc2)c2nnnn2C2CCCCC2)CC1 (stereo not given),inconclusive: -36.8%
8,Cc1csc(NC(=O)CCN2C(=O)c3ccccc3S2(=O)=O)n1,inconclusive: -31.2%
9,O=c1c(=O)n(O)c2ccccc2n1O,inconclusive: -42.7%
10,Nc1ccc(N2CCN(CCCCN3C(=O)C4CCCN4C3=O)CC2)cc1 (stereo not given),inconclusive: -36.4%
11,COc1ccccc1CNc1nc2nc(C)c(C)c(=O)n2[nH]1,inconclusive: -71.7%
12,Cc1ccc(C(=O)N2CCN(c3ccccc3)CC2)cc1C,active: -107%
13,O=C1/C(=C\c2ccncc2)SC(=S)N1C1CCCCC1,inconclusive: -49.5%
14,COc1ccc2c(CC(=O)OCC(=O)Nc3ccccc3[N+](=O)[O-])coc2c1,inconclusive: -43.8%
15,CC(C)(C)c1ccc(NC(=O)COC(=O)c2ccc([N+](=O)[O-])s2)cc1,inconclusive: -51.9%
16,Cc1nc2ccccn2c1C(=O)NC1CCCCC1,active: -105%
17,O=C(COc1ccccc1)NCc1nnc2c3ccccc3c(-c3ccccc3)nn12,inconclusive: -33.1%
18,COc1ccc2c(c1)-c1c(ssc1=S)C(C)(C)N2C(=O)CSC1=NCCS1,inactive: 28.7%
19,Cc1nc(N)[nH]c(=O)c1CCC(=O)OCC(C)C,inconclusive: -37.1%
20,COc1ccc(C(=O)Cn2nnc(-c3cccs3)n2)cc1,inconclusive: -67.4%
21,CC(=O)Nc1ccc(N2CCCC2)cc1,inactive: 13.6%
22,CC(/C=C\c1cccnc1)=C/C(=O)O,inconclusive: -36.7%
